Reference: PubChem BioAssay AID1794845 (National Center for Advancing Translational Sciences (NCATS), 2023)
The whole screen tested about 6,900 compounds, of which fewer than 10 were called active. The call rests on the fitted dose curve; in most records, active means well fitted curve in the direction sought with a large enough effect; inconclusive means small, poorly fitted or top-dose-only effect, or another doubt; inactive means no such curve, though single readings can be large or run the other way. The list shows a part of the results.

The chains behind the UniProt entries cited, without tags or fusion partners. Where a name states a change or a piece, a line headed by the entry shows the natural chain unless it says otherwise.
UniProt C7C422: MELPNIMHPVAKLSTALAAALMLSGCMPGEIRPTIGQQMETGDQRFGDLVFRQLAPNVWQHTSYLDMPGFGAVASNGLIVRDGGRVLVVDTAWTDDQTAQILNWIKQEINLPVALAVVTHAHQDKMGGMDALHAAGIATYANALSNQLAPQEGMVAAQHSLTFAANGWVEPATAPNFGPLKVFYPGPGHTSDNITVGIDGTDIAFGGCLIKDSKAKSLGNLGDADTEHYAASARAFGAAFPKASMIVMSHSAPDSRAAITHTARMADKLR

target: Metallo-beta-lactamase type 2 (Klebsiella pneumoniae) (UniProt C7C422); experiment: qHTS to identify inhibitors of the New Delhi Metallo-beta-lactamase (NDM): primary screen against the NCATS Gemini Collection; conditions: NDM-1 enzyme, meropenem hydrolysis, absorbance 300 nm; at 38.4 µM (top of the series) unless noted; further: % of control where 0% means no effect
In short: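 NDM-1 at 2 nM final in 50 mM HEPES pH 7.0, 1 uM ZnSO4, 0.01% Tween20, preincubated >30 min with compound. Meropenem 50 uM final added; absorbance at 300 nm after 30 min.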

Activity % (negative = inhibition), inactive:
CCCn1ncc(CN2CCC(Cc3cccc(C(F)(F)F)c3)(C(=O)OCC)CC2)c1C -4.63%
Cc1noc(C)c1C(=O)N1CCC2(CC1)CN(C(=O)Cc1cccc(Cl)c1)CCO2 6.19%
CNC(=O)[C@@H](C1CC1)N1CCC[C@H]1C(=O)N1CCC(C)CC1 79.2% [at 57.5 µM]
COCCN(C)Cc1cn(Cc2ccccc2)nc1-c1ccc2c(c1)OCO2 20.6%
C=CCNC(=O)N[C@H]1CO[C@H]2[C@@H]1OC[C@@H]2Nc1nccc(-c2cccc(F)c2)n1 2.05% [at 57.5 µM]
Cc1nn2c(c1-c1ccnn1C(C)C)N(Cc1ccc3c(c1)CCO3)CCC2 -4.9% [at 57.5 µM]
Cn1cc(CN2CCN3C(=O)N(C4CCCCC4)C[C@H]3C2)cn1 49.6% [at 57.5 µM]
Cc1cc(-c2nn(-c3ccccc3F)cc2CN(C)C(C)c2ccon2)c(C)s1 (configuration not stated) 4.52%
CNc1cc(C2CC(Nc3nc(N)nc(C)c3Cl)C2)nc(COC)n1 (configuration not stated) 10.4%
CCOC(=O)C1c2c(OC)ccc3c2C(=CC(C)(C)CO3)CN1C(=O)C1CC1 (configuration not stated) 2.76%
O=C(c1ccc(C2CCCNC2)cc1)N1CCC(Oc2cccc(F)c2)CC1 (configuration not stated) -10%
C#CCNC(=O)C[C@@H]1c2nc(NC(=O)OCC=C)sc2C[C@@H]2[C@](C)(CO)[C@H](O)CC[C@]21C 17.3%
O=C(C1CCCN1Cc1ccc(-c2cncnc2)cc1)N1CCOCC1 (configuration not stated) 4.93%
CCOc1ccccc1NC(=O)Nc1cccc(-c2ccc(N3CCCC3)nn2)c1 17.9%
COCC(=O)NC[C@H]1CCN(Cc2scnc2C)C[C@H]1N(C)C 4.56%
Cc1nc2c(c(-c3ccc(O)cc3)n1)CN(C(=O)c1ccccc1C)CCC2 4.15%
N[C@H]1CO[C@H]2[C@@H]1OC[C@@H]2n1cc(-c2ccccn2)nn1 -3.7% [at 77.1 µM]
Cc1cccc(C(C)(C)C)c1NC(=O)N1CCN2C(=O)CNC(=O)C2C1 (configuration not stated) 0.554%
CN1CCN(c2ccc(-c3cc4c(ccn4C)c(C(=O)NCCC(N)=O)n3)cc2)CC1 5.15% [at 57.5 µM]
CCC(C)NC(=O)C1COC2(CCC(C)CC2)N1C(=O)c1cccc(C)c1 (configuration not stated) -11.6%
O=c1[nH]c(C2CCCN([S+](=O)([O-])c3cccc(C(F)(F)F)c3)C2)nn1-c1ccccn1 (configuration not stated) 4.37%
O=C(CCC1CCCN(Cc2cc3ccccc3s2)C1)Nc1ccccc1F (configuration not stated) 4.23%

Random excerpt: two records from the list
Activity % (negative = inhibition), inactive:
CNC(=O)[C@@H](C1CC1)N1CCC[C@H]1C(=O)N1CCC(C)CC1 79.2% [at 57.5 µM]
Cn1cc(CN2CCN3C(=O)N(C4CCCCC4)C[C@H]3C2)cn1 49.6% [at 57.5 µM]
